Results: the supplement of paper PMC4862054
Small differences around the control level are noise.

How the values were obtained:
Assay in all cases: normalised response (% of control), CellTox Green; higher = less cell death (100 = DMSO, 0 = benzethonium chloride kill control)
Conditions in all cases: incubation time: 72 h
BT-474 = test system: BT-474
Protocol: (§1)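 DSRT, 72 h incubation, CellTox Green / CellTiter-Glo readout. Signal is normalised to DMSO and benzethonium chloride controls. Value is the normalised response at dose 2.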

BT-549 = test system: BT-549
Protocol: as §1

CAL-120 = test system: CAL-120
Protocol: as §1

CAL-148 = test system: CAL-148
Protocol: as §1

CAL-51 = test system: CAL-51
Protocol: as §1

CAL-85-1 = test system: CAL-85-1
Protocol: as §1

DU-4475 = test system: DU-4475
Protocol: as §1

HCC1143 = test system: HCC1143
Protocol: as §1

HCC1599 = test system: HCC1599
Protocol: as §1

HCC1937 = test system: HCC1937
Protocol: as §1

HDQ-P1 = test system: HDQ-P1
Protocol: as §1

Hs578T = test system: Hs578T
Protocol: as §1

MCF-10A = test system: MCF-10A
Protocol: as §1

MDA-MB-231 = test system: MDA-MB-231
Protocol: as §1

MDA-MB-436 = test system: MDA-MB-436
Protocol: as §1

MDA-MB-453 = test system: MDA-MB-453
Protocol: as §1

MFM-223 = test system: MFM-223
Protocol: as §1

MDA-MB-468 = test system: MDA-MB-468
Protocol: as §1

Compound	normalised response (BT-474) [%]	normalised response (BT-549) [%]	normalised response (CAL-120) [%]	normalised response (CAL-148) [%]	normalised response (CAL-51) [%]	normalised response (CAL-85-1) [%]	normalised response (DU-4475) [%]	normalised response (HCC1143) [%]	normalised response (HCC1599) [%]	normalised response (HCC1937) [%]	normalised response (HDQ-P1) [%]	normalised response (Hs578T) [%]	normalised response (MCF-10A) [%]	normalised response (MDA-MB-231) [%]	normalised response (MDA-MB-436) [%]	normalised response (MDA-MB-453) [%]	normalised response (MFM-223) [%]	normalised response (MDA-MB-468) [%]
O=C(Nc1ccncc1)C(=O)c1cn(Cc2ccc(Cl)cc2)c2ccccc12 [Indibulin] (10 nM)	97.2	102	109	104	84.6	94.8	115	119	121	115	115	121	118	65.5	89.7	105	103	
CCc1c2c(nc3ccc(OC(=O)N4CCC(N5CCCCC5)CC4)cc13)-c1cc3c(c(=O)n1C2)COC(=O)[C@]3(O)CC [Irinotecan] (10 nM)	59.6	97	103	93.7	103	93.2	111	110	117	64.2	113	116	114		100	104	91.8	65
Clc1ccc(C(c2ccccc2Cl)C(Cl)Cl)cc1 (stereo unspecified) [Mitotane] (10 nM)	101	98.5	101	101	102	94.6	96.6		102	98.8	99.3	111	61.9	96.7	98.8	96	95.4	90.3
CC1(C)CCC(c2ccc(Cl)cc2)=C(CN2CCN(c3ccc(C(=O)NS(=O)(=O)c4ccc(N[C@H](CCN5CCOCC5)CSc5ccccc5)c(S(=O)(=O)C(F)(F)F)c4)cc3)CC2)C1 [Navitoclax] (10 nM)	101	92.7	96.9	103	93.5	98.4	96.2	94.4	83.8	74.1	101	83.7	82.4		56	97.3	102	105
Cn1c(Nc2ccc(C(F)(F)F)cc2)nc2cc(Oc3ccnc(-c4ncc(C(F)(F)F)[nH]4)c3)ccc21 [RAF265] (1 nM)	97.7	105	103	106	103	103	111	119	110	103	122			92.6	112	109	103	96.1
CC[C@H](CO)Nc1nc(NCc2ccccc2)c2ncn(C(C)C)c2n1 [Seliciclib] (10 nM)	94.3	107	104	87.2	111	99.9	110	90.3	114	98.1	90.3	120	105	108	103		97.3	55.6
O=[N+]([O-])c1ccc2c(c1)S(=O)(=O)C=C2 [Stattic] (50 nM)	104	107	88.4	106	104	104	98.4	104	99.1	120	112	118	91.2	108	80.8	97.6	105	
Cn1c(=O)c(F)c(Nc2ccc(I)cc2F)c2c(=O)n(C[C@@H](O)CO)cnc21 [TAK-733] (1 nM)	104	81.1	104	84.7	94.8	98	117	103	122		86.2	110	101	111	94.2	107	104	115
Cn1cncc1[C@@](N)(c1ccc(Cl)cc1)c1ccc2c(c1)c(-c1cccc(Cl)c1)cc(=O)n2C [Tipifarnib] (10 nM)	103	105	100	105	95.8	103	109	108	112	96.2	111	67.6	109	105	71.6	103	92.5	
